For 1 molecule, binding results are on record in PMC4039008.

These are yes or no findings as the source states them, for the method shown. Some entries that bind do so weakly or less than the wild type.

This assay addresses AtCOPT6 (A. thaliana) (UniProt Q8GWP3). The assay can be described thus: two-hybrid; split-ubiquitin membrane yeast two-hybrid (MYTH); bait COPT-Cub-PLV in THY.AP4, prey COPT-NubG in THY.AP5; diploid cells, 2 days of growth on SC medium lacking adenine and histidine; verified by beta-galactosidase assay.

B1: AtCOPT6 (protein, UniProt Q8GWP3 1-145)
chain: MDHGNMPPSSPSSMVNHTNSNMIMMHMTFFWGKNTEILFSGWPGTSLGMYVLCLIVVFLLAVIVEWLAHSSILRGRGSTSRAKGLVQTAVYTLKTGLAYLVMLAVMSFNGGVFIVAIAGFAVGFMLFGSTAFKNPSDDEKPFEQL
B1: the binding result is listed as “binds”.
